Source: PubChem BioAssay AID743454 (Peter MacCallum Cancer Centre, 2014)
The whole screen tested about 18,000 reagents; below is a part drawn at random. 450 of them (2.5%) count as active. 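Single biological run; no consistent viability z cut-off exists, so the class columns, not z-scores, define the calls.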 Entries without a mark were called inactive.

Screen: 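Genes whose loss kills vorinostat-resistant colon cancer cells under vorinostat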 (primary screen)
Cells: human HCT116-VR colon cancer cells, selected for vorinostat resistance
Reagent: siRNA pool against human genes, 40 nM siRNA pool
Time to read-out: vorinostat for 24 h, read-out about 72 h after transfection
Treatment: vorinostat at 2.5 µM final
Measured: 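Cell viability by CellTiter-Fluor and caspase 3/7 activity by luminescence, each scaled to mock wells per plate, duplicates averaged, then robust z-scored over all plates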
Direction: viability robust z-score: higher = more viable cells than screen typical; caspase robust z-score: higher = more caspase 3/7 activity than screen typical
Call rule: 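a knock-down is a hit when classed RV1 or RV2 for lowered viability, or CA1 or CA2 for caspase activation; those lethal without drug were dropped; hits were retested singly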

| gene symbol | viability hit class | caspase hit class | viability robust z-score | caspase robust z-score |
| --- | --- | --- | --- | --- |
| DZIP1 (GeneID 22873) | no change | no change | -0.44 | -1.12 |
| MAFG (GeneID 4097) | no change | no change | -2.71 | 1.17 |
| PANX1 (GeneID 24145) | no change | no change | -0.08 | 0.31 |
| DSEL (GeneID 92126) | no change | no change | 0.22 | -0.86 |
| GPA33 (GeneID 10223) | no change | no change | 0.68 | 0.66 |
| MORF4 (GeneID 10934) | no change | no change | 0.82 | -0.38 |
| DNAJC27 (GeneID 51277) | no change | no change | 0.52 | 1.27 |
| SEPHS1 (GeneID 22929) | no change (active) | CA1 (caspase activation) | 0.72 | 5.29 |
| SGCG (GeneID 6445) | no change | no change | 0.51 | -0.06 |
| TRPC4 (GeneID 7223) | no change | no change | -0.98 | 0.28 |
| DOCK2 (GeneID 1794) | no change | no change | 2.02 | -0.75 |
| DCBLD1 (GeneID 285761) | no change | no change | 1.85 | -0.6 |
| GALNT1 (GeneID 2589) | no change | no change | 0.12 | -1.36 |
| NEFM (GeneID 4741) | no change | no change | 0.08 | -0.68 |
| ACKR5 (GeneID 11318) | no change | no change | -1.09 | -1.14 |
| CHCHD10 (GeneID 400916) | no change (active) | CA1 (caspase activation) | -0.2 | 5.28 |
| TM7SF2 (GeneID 7108) | no change | no change | -0.1 | -0.28 |
| GRIA4 (GeneID 2893) | no change | no change | 0.19 | -0.36 |
| GH2 (GeneID 2689) | no change | no change | 0.62 | -0.5 |
| LINC00518 (GeneID 221718) | no change | no change | -0.5 | 1.07 |
| WDR62 (GeneID 284403) | no change | no change | -0.35 | 0.44 |
| ABCC8 (GeneID 6833) | no change | no change | -1.62 | 0.22 |
| PYM1 (GeneID 84305) | no change | no change | -0.66 | -0.44 |
| CA7 (GeneID 766) | no change | no change | -0.32 | -0.67 |
| CCDC73 (GeneID 493860) | no change | no change | 0.24 | 0.86 |
| ARPC5L (GeneID 81873) | no change | no change | 0.99 | -0.55 |
| CIB1 (GeneID 10519) | no change | no change | -0.05 | -1.25 |
| DOK1 (GeneID 1796) | no change | no change | 1.12 | -0.88 |
| STK17B (GeneID 9262) | no change | no change | -1.14 | 0.25 |
| SLC35D4 (GeneID 85019) | no change | no change | 1.66 | 0.98 |
| NLRP7 (GeneID 199713) | no change | no change | -0.71 | 1.8 |
| ZSCAN21 (GeneID 7589) | no change | no change | -1.36 | -0.98 |
| GDAP1L1 (GeneID 78997) | no change | no change | -0.18 | -0.68 |
| KCNH4 (GeneID 23415) | no change | no change | 0.7 | -0.32 |
| SLIT1 (GeneID 6585) | no change | no change | 1.25 | 0.51 |
| AKNAD1 (GeneID 254268) | no change | no change | -0.26 | -0.96 |
| CCL28 (GeneID 56477) | no change | no change | -0.72 | -1.04 |
| NIT2 (GeneID 56954) | no change | no change | -0.18 | -0.16 |
| GRK4 (GeneID 2868) | no change | no change | 1 | -0.74 |

A stretch of the results above:
| gene symbol | viability hit class | caspase hit class | viability robust z-score | caspase robust z-score |
| --- | --- | --- | --- | --- |
| WDR62 (GeneID 284403) | no change | no change | -0.35 | 0.44 |
| ABCC8 (GeneID 6833) | no change | no change | -1.62 | 0.22 |
| PYM1 (GeneID 84305) | no change | no change | -0.66 | -0.44 |
